From publication PMC5342753
Results are given in words; binding and its absence hold for the method and conditions named. In cells and extracts the contact can be indirect. Some entries that bind do so weakly or less than the wild type.

Chains of the proteins cited; added tags and fusions are not shown.
UniProt P07948: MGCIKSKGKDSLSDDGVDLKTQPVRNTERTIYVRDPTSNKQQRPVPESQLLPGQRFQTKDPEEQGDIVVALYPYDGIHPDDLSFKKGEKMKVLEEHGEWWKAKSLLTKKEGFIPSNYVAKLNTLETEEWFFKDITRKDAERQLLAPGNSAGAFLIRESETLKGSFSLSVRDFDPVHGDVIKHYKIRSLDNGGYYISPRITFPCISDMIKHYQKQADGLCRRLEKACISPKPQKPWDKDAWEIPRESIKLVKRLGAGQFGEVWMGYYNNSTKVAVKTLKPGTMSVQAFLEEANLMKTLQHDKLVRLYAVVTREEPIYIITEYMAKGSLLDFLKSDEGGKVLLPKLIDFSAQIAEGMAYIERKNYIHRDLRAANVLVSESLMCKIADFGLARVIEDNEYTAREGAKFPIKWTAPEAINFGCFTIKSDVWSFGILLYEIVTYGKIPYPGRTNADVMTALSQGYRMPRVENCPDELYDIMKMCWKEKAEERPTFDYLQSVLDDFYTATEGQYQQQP
UniProt P40763: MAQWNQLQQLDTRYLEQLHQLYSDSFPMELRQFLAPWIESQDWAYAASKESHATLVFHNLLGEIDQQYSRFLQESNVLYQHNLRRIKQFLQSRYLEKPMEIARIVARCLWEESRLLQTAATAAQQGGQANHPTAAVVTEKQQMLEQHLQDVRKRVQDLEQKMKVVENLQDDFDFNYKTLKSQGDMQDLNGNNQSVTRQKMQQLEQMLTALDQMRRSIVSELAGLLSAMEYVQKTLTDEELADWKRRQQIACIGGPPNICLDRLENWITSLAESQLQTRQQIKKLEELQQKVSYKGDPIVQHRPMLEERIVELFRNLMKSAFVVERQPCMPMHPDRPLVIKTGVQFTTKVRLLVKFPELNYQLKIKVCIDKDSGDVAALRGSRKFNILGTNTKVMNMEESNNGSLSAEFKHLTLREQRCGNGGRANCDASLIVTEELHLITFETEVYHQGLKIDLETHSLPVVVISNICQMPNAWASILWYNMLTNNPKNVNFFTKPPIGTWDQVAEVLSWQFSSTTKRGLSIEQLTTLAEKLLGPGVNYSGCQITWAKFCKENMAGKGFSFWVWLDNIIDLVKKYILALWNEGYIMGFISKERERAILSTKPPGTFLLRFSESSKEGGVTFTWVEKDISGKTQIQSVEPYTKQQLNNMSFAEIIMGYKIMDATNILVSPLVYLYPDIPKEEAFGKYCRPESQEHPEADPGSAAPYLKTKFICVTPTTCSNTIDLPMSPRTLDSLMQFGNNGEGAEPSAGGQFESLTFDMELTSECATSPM

Biological target: LYN-HA (UniProt P07948)
Test: co-IP; P-STAT3-Flag and LYN-HA co-transfected into SiHa cells, collected after 24 h; lysed in RIPA buffer with phosphatase/protease inhibitors; precipitated with anti-HA tag antibody on Protein A+G Sepharose beads at 4°C; blot with anti-Flag tag antibody

binding: binds
Substance: P-STAT3-Flag (from UniProt P40763 1-770)
